Experimental data taken from article PMC11338640.
These are yes or no findings as the source states them, for the method shown. In cells and extracts the contact can be indirect. These calls come from enrichment with a bait or labelling near it, and not all partners need be listed. Sequences can lack the tags named with a protein.

Protein sequences, listed by entry. Tags and fused reporters are not part of them. Residues count along the entry.
UniProt P25705, residues 44-553: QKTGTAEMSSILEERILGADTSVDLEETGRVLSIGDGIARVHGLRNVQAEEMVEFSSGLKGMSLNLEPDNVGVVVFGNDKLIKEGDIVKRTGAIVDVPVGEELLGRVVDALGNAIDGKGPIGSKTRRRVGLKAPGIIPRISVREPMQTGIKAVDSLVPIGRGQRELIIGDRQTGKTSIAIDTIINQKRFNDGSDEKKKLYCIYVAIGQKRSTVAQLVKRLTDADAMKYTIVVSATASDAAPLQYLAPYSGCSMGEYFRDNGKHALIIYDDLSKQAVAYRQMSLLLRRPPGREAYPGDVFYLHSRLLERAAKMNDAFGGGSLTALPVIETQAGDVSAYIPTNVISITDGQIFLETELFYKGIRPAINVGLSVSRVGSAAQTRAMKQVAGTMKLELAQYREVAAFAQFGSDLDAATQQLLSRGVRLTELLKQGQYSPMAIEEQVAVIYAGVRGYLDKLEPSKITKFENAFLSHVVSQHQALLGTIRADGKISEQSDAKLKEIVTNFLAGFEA
UniProt O75947: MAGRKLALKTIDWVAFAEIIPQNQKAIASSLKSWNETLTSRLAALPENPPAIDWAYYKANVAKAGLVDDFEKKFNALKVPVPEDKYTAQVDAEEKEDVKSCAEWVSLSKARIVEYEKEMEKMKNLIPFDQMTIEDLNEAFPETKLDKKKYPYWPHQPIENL

T1: MC089-FLAG (molluscum contagiosum virus protein MC089, C-terminal FLAG tag, pMEP4, CdCl2-inducible) (Molluscum contagiosum virus subtype 1) (UniProt Q98256)
T1 sequence: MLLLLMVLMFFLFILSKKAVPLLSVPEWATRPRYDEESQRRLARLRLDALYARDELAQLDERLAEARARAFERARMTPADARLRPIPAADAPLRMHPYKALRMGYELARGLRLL


Target: T1, MC089-FLAG (molluscum contagiosum virus protein MC089, C-terminal FLAG tag, pMEP4, CdCl2-inducible) (Molluscum contagiosum virus subtype 1)
Test: affinity purification with mass spectrometry; stable CdCl2-induced MEP4-MC089-FLAG HEK293T cells against pMEP4 empty vector cells, n=4; TAP lysis buffer (50 mM Tris-HCl pH 7.5, 0.2% NP-40, 100 mM NaCl), anti-FLAG M2 affinity gel 1 h at 4 °C; LC-MS/MS, label-free quantification, FDR 0.01

Molecule	binding
ATP5A1 (mitochondrial ATP synthase subunit) (from UniProt P25705 44-553)	binds
ATP5B (mitochondrial ATP synthase subunit) (from UniProt P06576 48-529)	binds
ATP5H (mitochondrial ATP synthase subunit) (from UniProt O75947 1-161)	binds
ATP5F1 (mitochondrial ATP synthase subunit) (protein, UniProt P24539 43-256) PVPPLPEYGGKVRYGLIPEEFFQFLYPKTGVTGPYVLGTGLILYALSKEIYVISAETFTALSVLGVMVYGIKKYGPFVADFADKLNEQKLAQLEEAKQASIQHIQNAIDTEKSQQALVQKRHYLFDVQRNNIAMALEVTYRERLYRVYKEVKNRLDYHISVQNMMRRKEQEHMINWVEKHVVQSISTQQEKETIAKCIADLKLLAKKAQAQPVM	binds
ATP5J (mitochondrial ATP synthase subunit) (protein, UniProt P18859 33-108) NKELDPIQKLFVDKIREYKSKRQTSGGPVDASSEYQQELERELFKLKQMFGNADMNTFPTFKFEDPKFEVIEKPQA	binds
ATP5O (mitochondrial ATP synthase subunit) (protein, UniProt P48047 24-213) FAKLVRPPVQVYGIEGRYATALYSAASKQNKLEQVEKELLRVAQILKEPKVAASVLNPYVKRSIKVKSLNDITAKERFSPLTTNLINLLAENGRLSNTQGVVSAFSTMMSVHRGEVPCTVTSASPLEEATLSELKTVLKSFLSQGQVLKLEAKTDPSILGGMIVRIGEKYVDMSVKTKIQKLGRAMREIV	binds
